Test results published in article PMC3930493.
Results are given in words; binding and its absence hold for the method and conditions named. In cells and extracts the contact can be indirect. Some results given as binding are weak or reduced against the parent protein; the word gives no strength. Where a sequence is shown, tags or fusion partners need not be part of it.

Target: T1, Drosophila Trabid-V5 (D. melanogaster), Q9VH90
T1 chain: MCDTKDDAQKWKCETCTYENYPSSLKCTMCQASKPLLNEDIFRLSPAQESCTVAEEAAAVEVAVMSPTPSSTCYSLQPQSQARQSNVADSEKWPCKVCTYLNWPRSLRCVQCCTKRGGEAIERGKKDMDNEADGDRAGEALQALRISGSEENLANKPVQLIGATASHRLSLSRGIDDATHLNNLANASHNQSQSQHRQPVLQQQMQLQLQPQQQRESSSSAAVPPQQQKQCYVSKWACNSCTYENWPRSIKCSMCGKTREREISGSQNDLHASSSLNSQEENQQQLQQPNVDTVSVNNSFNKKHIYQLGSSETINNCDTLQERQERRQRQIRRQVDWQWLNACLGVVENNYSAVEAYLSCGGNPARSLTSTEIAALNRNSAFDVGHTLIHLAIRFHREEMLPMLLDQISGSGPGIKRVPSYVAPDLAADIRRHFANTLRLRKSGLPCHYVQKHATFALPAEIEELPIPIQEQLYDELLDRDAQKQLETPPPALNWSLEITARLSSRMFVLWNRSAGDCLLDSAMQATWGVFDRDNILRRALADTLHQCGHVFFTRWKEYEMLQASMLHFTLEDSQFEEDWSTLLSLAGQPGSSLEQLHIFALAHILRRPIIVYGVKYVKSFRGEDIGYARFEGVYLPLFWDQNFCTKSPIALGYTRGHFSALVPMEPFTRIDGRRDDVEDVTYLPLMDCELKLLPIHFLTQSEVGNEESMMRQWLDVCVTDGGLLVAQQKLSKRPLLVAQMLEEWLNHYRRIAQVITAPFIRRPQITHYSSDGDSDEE
Experiment: co-IP; S2 cells co-transfected, lysed 48 hrs post-transfection in RIPA buffer; anti-V5 agarose 2 hours at 4°C; washes with 900 mM NaCl then 150 mM NaCl CoIP wash buffer; 10% SDS PAGE, immunoblot with anti-HA
Details: remark: other sources report otherwise

binding: binds
B1: Drosophila TAK1-HA (TGF-beta Activating Kinase 1), Q9V3Q6 1-678 (protein)
chain: MATASLDALQAAYVDFSEITLREKVGHGSYGVVCKAVWRDKLVAVKEFFASAEQKDIEKEVKQLSRVKHPNIIALHGISSYQQATYLIMEFAEGGSLHNFLHGKVKPAYSLAHAMSWARQCAEGLAYLHAMTPKPLIHRDVKPLNLLLTNKGRNLKICDFGTVADKSTMMTNNRGSAAWMAPEVFEGSKYTEKCDIFSWAIVLWEVLSRKQPFKGIDNAYTIQWKIYKGERPPLLTTCPKRIEDLMTACWKTVPEDRPSMQYIVGVMHEIVKDYTGADKALEYTFVNQQIVTKESDGTVAAQPDSLSSQEGELSPSSTQLTPTTAANANVNAIAISKTTTSSMTENTSSTSSDITPTNSGQLDNNPLFYMVTNRWDAIPEEESNESRNDSFNLTSSAEATQRLETIRNGMILMACKPMEQLTLDVEANGFDLSPSESSSSSTNAKSDGRERLTVTDTKPVMMTTDLSNNNGGIHAHSNGLLSHANGWQARDEELQEQEHEQEIVNSLDVDVDPDEDENDGTEQSLAEILDPELQPEPPIPNDAESQLIYRDHRHMAKEYLSVDTNLYYAQDFKDKLIVQMDRTEREQKQELLRKMKDKEGLQSLYNNLQQQYASRQLAAGHHPQPHPHPHPNQLQHPHSHPPMHFLQDEGCGLLPGSVCGGSESVEEGWVVIPPHHNA
